According to patent US6020166, “Nucleic acid encoding an altered telomere repeat binding factor 2” (The Rockfeller University):
For some assays here: Weaker means in comparison with the reference protein, sequence or condition of that experiment. Tags and fusion partners may be left off the protein sequences shown. For some assays here: Construct, isoform or probe ends are uncertain for at least one entry. For some assays here: Negatives hold for the conditions tested.

Sequences of proteins named here, by UniProt entry; tags and fusion partners are left off. A change or cut given only in a name is not applied to a line headed by its entry.
UniProt P54274: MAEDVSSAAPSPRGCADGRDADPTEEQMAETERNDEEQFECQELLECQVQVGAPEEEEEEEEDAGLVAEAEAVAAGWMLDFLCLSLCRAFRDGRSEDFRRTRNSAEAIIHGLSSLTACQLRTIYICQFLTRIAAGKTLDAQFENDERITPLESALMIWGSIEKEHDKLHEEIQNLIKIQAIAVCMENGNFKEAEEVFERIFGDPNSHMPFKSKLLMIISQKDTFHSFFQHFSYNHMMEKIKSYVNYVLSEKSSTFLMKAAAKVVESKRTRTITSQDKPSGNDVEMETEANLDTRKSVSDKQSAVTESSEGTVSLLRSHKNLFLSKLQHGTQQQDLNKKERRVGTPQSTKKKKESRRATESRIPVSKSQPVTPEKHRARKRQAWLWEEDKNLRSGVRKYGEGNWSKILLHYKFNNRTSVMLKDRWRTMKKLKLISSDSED

How the values were obtained:
[1] = target: T1, A-TRF1 66-385 in HeLa cells (Homo sapiens) (UniProt P54274); test: activity in cells; conditions: homogeneous nuclear distribution; displaces endogenous TRF1; protein in cells; protein details: FLAG; only the site is given
T1 sequence: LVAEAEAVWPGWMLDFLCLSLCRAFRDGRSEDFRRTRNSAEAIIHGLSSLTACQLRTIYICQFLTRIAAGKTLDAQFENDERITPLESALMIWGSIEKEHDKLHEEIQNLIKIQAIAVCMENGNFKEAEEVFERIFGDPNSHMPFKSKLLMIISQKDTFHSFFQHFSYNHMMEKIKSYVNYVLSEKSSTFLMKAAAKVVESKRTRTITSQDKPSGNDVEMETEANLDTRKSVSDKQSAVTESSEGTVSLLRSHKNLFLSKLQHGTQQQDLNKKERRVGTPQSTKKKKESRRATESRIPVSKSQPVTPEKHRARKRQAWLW

[2] = target: T2, TRF1 purified from HeLa (Homo sapiens) (UniProt P54274); test: EMSA; conditions: very weak binding; purified native protein; label: 32P
T2 sequence: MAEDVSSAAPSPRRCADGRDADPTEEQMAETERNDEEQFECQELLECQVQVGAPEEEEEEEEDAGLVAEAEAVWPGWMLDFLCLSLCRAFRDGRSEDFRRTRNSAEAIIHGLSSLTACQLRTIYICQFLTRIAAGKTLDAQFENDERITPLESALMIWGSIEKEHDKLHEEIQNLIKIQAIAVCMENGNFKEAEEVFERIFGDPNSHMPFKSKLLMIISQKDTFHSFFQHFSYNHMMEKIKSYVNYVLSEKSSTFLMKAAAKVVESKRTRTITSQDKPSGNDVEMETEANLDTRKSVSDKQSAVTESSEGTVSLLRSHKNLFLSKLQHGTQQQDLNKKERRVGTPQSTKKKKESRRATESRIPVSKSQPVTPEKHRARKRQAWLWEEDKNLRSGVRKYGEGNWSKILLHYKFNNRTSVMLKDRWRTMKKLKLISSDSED

Sequence: TTAGGG (double strand) [telomeric DNA in cells]
- activity on this sequence [1]: not active

Sequence: TTAGGGTTAGGGTTAGGG (double strand) [[TTAGGG]3 permuted probes]
- binding result [2]: binds more weakly
